Publication PMC6009876, “Introduction of pyrrolidineoxy or piperidineamino group at the 4-position of quinazoline leading to novel quinazoline-based phosphoinositide 3-kinase delta (PI3Kδ) inhibitors” (Journal of Enzyme Inhibition and Medicinal Chemistry, 2018)

Assays:
[1] = test system: Ramos; experiment: Anti-proliferative activity, MTT reduction method; format: cell-based; details: Homo sapiens, mean of at least two experiments
[2] = test system: Raji; experiment: Anti-proliferative activity, MTT reduction method; format: cell-based; details: Homo sapiens, mean of at least two experiments

O=C(CCCCCCC(=O)Nc1ccccc1)NO [SAHA, vorinostat, reference compound]
IC50 [1]: 520 nM
IC50 [2]: 970 nM
